# In the supplement of paper PMC6411743:
# ± gives the standard deviation of the averaged measurements. The list shows a part of the results, in another mix than the full data.
# How the values were obtained:
# Assay in all cases: NP40-soluble protein abundance relative to vehicle (solubility fold change) (ratio); higher = more soluble protein in presence of ATP
# RRP15 = molecular target: T1, RRP15 (UniProt Q9Y3B9)
# T1 sequence (whole entry): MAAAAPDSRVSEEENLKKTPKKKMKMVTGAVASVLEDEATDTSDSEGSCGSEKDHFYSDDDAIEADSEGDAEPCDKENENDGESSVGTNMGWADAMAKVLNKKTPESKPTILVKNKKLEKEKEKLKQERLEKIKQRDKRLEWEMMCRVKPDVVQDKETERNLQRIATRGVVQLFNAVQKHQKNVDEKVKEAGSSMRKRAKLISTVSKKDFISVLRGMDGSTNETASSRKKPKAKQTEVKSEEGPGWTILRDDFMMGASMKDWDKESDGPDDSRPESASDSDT
# Outline: (§1)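 Jurkat crude lysate prepared with a Dounce homogeniser was treated at eight concentrations spanning 0.1 to 10 mM, 10 min at room temperature then 3 min at 37 °C. Solubilisation with 0.8% NP40 and benzonase and ultracentrifugation preceded TMT labelling of the supernatant for LC-MS/MS. Fold change against the detergent-processed vehicle was determined per replicate from vsn-normalised intensities, across three independent experiments.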
# [1] = molecular target: T2, UniProt Q9Y2K1 and related entries
# T2 sequence (whole entry): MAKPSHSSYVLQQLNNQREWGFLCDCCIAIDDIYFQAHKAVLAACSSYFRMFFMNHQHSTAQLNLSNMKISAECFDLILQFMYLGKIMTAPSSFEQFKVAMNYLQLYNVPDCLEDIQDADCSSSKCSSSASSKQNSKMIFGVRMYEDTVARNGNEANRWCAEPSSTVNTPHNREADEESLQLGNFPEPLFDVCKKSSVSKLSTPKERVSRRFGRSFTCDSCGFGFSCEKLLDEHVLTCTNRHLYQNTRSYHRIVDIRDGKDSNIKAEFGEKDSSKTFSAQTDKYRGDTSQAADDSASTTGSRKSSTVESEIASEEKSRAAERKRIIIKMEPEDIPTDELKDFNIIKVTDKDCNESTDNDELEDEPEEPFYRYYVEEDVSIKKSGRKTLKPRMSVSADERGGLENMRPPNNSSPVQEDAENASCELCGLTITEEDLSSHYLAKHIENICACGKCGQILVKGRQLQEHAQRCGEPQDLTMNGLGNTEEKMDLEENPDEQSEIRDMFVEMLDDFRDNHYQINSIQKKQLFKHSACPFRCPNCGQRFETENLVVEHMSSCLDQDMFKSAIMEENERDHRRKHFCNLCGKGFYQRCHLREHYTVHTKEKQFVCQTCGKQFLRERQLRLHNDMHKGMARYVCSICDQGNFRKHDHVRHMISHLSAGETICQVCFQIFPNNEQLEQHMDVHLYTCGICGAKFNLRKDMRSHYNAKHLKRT
# Outline: as §1
# [2] = molecular target: T3, UniProt Q9Y394 and related entries
# T3 sequence (whole entry): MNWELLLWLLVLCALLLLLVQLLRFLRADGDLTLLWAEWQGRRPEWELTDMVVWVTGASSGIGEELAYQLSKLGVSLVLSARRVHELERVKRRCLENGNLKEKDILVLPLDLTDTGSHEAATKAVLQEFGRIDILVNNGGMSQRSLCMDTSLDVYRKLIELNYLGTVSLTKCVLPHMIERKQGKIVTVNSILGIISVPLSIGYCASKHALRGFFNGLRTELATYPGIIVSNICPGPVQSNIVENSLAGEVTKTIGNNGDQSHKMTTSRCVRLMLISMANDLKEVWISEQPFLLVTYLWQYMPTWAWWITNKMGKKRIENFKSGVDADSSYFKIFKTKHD
# Outline: as §1
# [3] = molecular target: T4, UniProt Q9Y3Y2 and related entries
# T4 sequence (whole entry): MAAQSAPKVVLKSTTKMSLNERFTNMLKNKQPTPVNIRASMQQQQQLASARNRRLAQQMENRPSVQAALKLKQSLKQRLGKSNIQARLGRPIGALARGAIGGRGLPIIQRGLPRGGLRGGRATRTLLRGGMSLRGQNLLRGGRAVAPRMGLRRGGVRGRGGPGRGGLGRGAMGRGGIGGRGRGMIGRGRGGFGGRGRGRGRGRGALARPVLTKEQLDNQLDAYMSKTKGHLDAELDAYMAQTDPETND
# Outline: as §1
# [4] = molecular target: T5, UniProt Q9Y4C2 and related entries
# T5 sequence (whole entry): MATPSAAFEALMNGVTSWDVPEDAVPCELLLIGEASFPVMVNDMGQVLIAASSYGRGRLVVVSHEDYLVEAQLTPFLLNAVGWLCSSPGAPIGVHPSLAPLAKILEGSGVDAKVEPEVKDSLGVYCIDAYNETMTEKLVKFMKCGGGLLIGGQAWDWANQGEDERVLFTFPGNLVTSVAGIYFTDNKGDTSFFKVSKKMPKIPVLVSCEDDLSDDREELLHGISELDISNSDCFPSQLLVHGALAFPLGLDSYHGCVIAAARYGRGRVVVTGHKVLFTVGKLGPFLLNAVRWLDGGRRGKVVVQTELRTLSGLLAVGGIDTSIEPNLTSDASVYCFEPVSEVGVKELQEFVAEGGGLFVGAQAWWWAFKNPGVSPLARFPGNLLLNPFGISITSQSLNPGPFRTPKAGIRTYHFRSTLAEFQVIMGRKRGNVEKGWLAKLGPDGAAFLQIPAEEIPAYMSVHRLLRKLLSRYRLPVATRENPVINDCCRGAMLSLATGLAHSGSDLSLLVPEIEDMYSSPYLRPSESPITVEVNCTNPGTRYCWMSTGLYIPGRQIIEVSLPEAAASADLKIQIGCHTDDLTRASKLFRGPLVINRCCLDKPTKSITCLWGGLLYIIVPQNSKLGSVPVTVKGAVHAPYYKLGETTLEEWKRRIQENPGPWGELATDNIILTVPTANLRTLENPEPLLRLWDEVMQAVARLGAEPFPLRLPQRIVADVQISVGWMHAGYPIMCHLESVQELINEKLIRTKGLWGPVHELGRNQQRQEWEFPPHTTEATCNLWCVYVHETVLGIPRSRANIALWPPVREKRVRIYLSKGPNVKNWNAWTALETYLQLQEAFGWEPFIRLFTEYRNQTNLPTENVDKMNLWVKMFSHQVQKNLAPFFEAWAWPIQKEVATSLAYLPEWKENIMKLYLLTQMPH
# Outline: as §1
# [5] = molecular target: T6, UniProt Q9Y4W2 and related entries
# T6 sequence (whole entry): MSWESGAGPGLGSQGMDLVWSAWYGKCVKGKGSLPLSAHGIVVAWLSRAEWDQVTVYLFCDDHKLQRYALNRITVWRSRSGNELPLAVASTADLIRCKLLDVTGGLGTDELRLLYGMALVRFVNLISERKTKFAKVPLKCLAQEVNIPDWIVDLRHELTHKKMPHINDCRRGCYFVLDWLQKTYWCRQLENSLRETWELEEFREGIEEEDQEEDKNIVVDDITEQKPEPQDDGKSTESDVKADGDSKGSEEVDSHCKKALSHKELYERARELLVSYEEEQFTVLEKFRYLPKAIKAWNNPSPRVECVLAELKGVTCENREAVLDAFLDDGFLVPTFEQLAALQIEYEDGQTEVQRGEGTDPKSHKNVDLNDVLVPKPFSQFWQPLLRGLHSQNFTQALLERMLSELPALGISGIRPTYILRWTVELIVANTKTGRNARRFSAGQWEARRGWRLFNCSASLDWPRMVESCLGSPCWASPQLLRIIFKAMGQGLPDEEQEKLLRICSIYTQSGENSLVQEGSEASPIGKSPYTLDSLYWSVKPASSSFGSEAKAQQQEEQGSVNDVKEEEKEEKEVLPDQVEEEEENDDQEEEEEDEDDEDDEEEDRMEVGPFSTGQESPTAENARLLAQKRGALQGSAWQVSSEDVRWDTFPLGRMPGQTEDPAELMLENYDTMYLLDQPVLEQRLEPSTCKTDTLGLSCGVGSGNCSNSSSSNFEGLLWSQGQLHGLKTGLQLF
# Outline: as §1
# ZHX2 = molecular target: T7, ZHX2 (UniProt Q9Y6X8)
# T7 sequence (whole entry): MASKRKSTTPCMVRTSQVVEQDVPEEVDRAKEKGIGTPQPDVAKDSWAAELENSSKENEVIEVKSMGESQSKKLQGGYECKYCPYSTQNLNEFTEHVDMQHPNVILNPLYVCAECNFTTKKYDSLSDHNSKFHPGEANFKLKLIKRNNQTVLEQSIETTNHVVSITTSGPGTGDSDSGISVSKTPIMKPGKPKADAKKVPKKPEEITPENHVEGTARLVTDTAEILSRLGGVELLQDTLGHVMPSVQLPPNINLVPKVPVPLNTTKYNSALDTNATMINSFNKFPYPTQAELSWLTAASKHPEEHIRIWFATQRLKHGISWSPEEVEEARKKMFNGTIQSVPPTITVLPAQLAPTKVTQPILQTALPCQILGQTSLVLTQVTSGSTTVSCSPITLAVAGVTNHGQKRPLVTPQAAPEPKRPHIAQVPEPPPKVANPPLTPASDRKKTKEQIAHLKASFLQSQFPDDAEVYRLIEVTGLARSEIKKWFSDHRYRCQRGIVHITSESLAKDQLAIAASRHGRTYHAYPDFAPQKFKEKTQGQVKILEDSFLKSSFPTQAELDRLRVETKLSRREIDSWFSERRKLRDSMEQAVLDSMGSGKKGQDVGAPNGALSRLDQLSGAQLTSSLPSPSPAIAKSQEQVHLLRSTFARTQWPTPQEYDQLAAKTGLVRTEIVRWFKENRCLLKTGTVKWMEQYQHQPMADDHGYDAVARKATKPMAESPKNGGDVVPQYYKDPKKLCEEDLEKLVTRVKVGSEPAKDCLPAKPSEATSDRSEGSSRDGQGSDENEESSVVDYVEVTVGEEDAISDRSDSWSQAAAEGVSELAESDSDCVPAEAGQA
# Outline: as §1
smiles,measurement,setting,value
Nc1ncnc2c1ncn2[C@@H]1O[C@H](COP(=O)(O)OP(=O)(O)OP(=O)(O)O)[C@@H](O)[C@H]1O [adenosine triphosphate],NP40-soluble protein abundance,RRP15; concentration: 6mM,1.2 ± 0.087
same,NP40-soluble protein abundance,RRP15; concentration: 8mM,1.24 ± 0.11
same,NP40-soluble protein abundance,RRP15; concentration: 10mM,1.26 ± 0.088
same,NP40-soluble protein abundance,[1]; concentration: 1mM,1.07 ± 0.046
same,NP40-soluble protein abundance,[1]; concentration: 2mM,1.13 ± 0.051
same,NP40-soluble protein abundance,[1]; concentration: 4mM,1.25 ± 0.078
same,NP40-soluble protein abundance,[1]; concentration: 6mM,1.27 ± 0.093
same,NP40-soluble protein abundance,[1]; concentration: 8mM,1.17 ± 0.09
same,NP40-soluble protein abundance,[1]; concentration: 10mM,1.23 ± 0.039
same,NP40-soluble protein abundance,[2]; concentration: 1mM,1.012 ± 0.0016
same,NP40-soluble protein abundance,[2]; concentration: 2mM,1.02 ± 0.011
same,NP40-soluble protein abundance,[2]; concentration: 4mM,0.983 ± 0.021
same,NP40-soluble protein abundance,[2]; concentration: 6mM,0.947 ± 0.046
same,NP40-soluble protein abundance,[2]; concentration: 8mM,0.994 ± 0.02
same,NP40-soluble protein abundance,[2]; concentration: 10mM,0.989 ± 0.015
same,NP40-soluble protein abundance,[3]; concentration: 1mM,1.06 ± 0.1
same,NP40-soluble protein abundance,[3]; concentration: 2mM,1.09 ± 0.062
same,NP40-soluble protein abundance,[3]; concentration: 4mM,1.23 ± 0.074
same,NP40-soluble protein abundance,[3]; concentration: 6mM,1.38 ± 0.18
same,NP40-soluble protein abundance,[3]; concentration: 8mM,1.39 ± 0.039
same,NP40-soluble protein abundance,[3]; concentration: 10mM,1.62 ± 0.16
same,NP40-soluble protein abundance,[4]; concentration: 1mM,1.1 ± 0.054
same,NP40-soluble protein abundance,[4]; concentration: 2mM,0.969 ± 0.033
same,NP40-soluble protein abundance,[4]; concentration: 4mM,1.03 ± 0.07
same,NP40-soluble protein abundance,[4]; concentration: 6mM,0.9585 ± 0.0092
same,NP40-soluble protein abundance,[4]; concentration: 8mM,0.99 ± 0.052
same,NP40-soluble protein abundance,[4]; concentration: 10mM,0.971 ± 0.025
same,NP40-soluble protein abundance,[5]; concentration: 1mM,0.924 ± 0.087
same,NP40-soluble protein abundance,[5]; concentration: 2mM,0.908 ± 0.027
same,NP40-soluble protein abundance,[5]; concentration: 4mM,0.898 ± 0.04
same,NP40-soluble protein abundance,[5]; concentration: 6mM,0.917 ± 0.1
same,NP40-soluble protein abundance,[5]; concentration: 8mM,0.91 ± 0.051
same,NP40-soluble protein abundance,[5]; concentration: 10mM,0.951 ± 0.057
same,NP40-soluble protein abundance,ZHX2; concentration: 1mM,0.961 ± 0.083
same,NP40-soluble protein abundance,ZHX2; concentration: 2mM,0.96 ± 0.069
same,NP40-soluble protein abundance,ZHX2; concentration: 4mM,0.984 ± 0.047
same,NP40-soluble protein abundance,ZHX2; concentration: 6mM,1.02 ± 0.049
same,NP40-soluble protein abundance,ZHX2; concentration: 8mM,0.948 ± 0.015
same,NP40-soluble protein abundance,ZHX2; concentration: 10mM,0.962 ± 0.019

# Exported bar-delimited: part of the list above.
smiles | measurement | setting | value
Nc1ncnc2c1ncn2[C@@H]1O[C@H](COP(=O)(O)OP(=O)(O)OP(=O)(O)O)[C@@H](O)[C@H]1O [adenosine triphosphate] | NP40-soluble protein abundance | [4]; concentration: 6mM | 0.9585 ± 0.0092
same | NP40-soluble protein abundance | [4]; concentration: 8mM | 0.99 ± 0.052
